# Reference: patent US8597660B2, “Therapeutic approach to neurodegenerative disorders using a TFP5-peptide” (The United States of America, as represented by the …, priority 2010, dated 2013)
# By UniProt entry, the sequences of proteins in these tests, tags left out.
# UniProt Q03114, whole entry: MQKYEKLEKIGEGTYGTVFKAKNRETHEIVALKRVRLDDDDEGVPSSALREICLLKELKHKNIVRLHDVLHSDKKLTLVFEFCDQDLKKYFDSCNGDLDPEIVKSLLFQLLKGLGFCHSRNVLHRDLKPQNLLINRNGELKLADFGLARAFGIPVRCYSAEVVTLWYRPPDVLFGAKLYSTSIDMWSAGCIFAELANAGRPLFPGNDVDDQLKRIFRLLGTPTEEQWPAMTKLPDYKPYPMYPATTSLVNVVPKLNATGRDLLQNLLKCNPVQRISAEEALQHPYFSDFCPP
# UniProt P49615, whole entry: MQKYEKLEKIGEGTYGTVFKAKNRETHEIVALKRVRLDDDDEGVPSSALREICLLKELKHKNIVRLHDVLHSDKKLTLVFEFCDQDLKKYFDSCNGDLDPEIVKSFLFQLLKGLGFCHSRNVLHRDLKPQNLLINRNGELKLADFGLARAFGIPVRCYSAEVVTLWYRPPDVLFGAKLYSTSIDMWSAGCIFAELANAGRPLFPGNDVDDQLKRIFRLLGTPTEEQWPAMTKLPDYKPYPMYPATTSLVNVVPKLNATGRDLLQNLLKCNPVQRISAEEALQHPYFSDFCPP
# Entries after “also recorded” stand apart in the source; their conditions may differ. At least one peptide structure holds a part that was inferred or is arguable (an end, a ring closure or a residue). Peptide text beside a SMILES is read from it. * marks the point of attachment. FITC = O=C1OC2(c3ccc(O)cc3Oc3cc(O)ccc32)c2ccc(NC(=S)*)cc21
# What was measured:
# [1] = system: tau and neurofilament proteins (NFPs); assay: Immunoblot of phospho-tau and phospho-NF-M/H in whole-brain homogenates of 5XFAD mice; type: in vivo, mouse; details: brain lysates of 5XFAD mice treated with TFP5
# [2] = system: Aβ42; assay: Aβ42 / 6E10 immunofluorescence of brain cortex sections of 5XFAD mice; type: in vivo, mouse
# [3] = system: apoptotic cells; assay: Cleaved caspase-3 staining of brain sections of 5XFAD mice; type: in vivo, mouse; details: brain sections from 5XFAD mice
# [4] = system: 5XFAD mice; assay: Y-maze spontaneous alteration (spatial working memory) in 5XFAD mice; type: in vivo, mouse; details: 5XFAD mice 6, 9, 12 months, three consecutive ip injections 0.2 mM TFP5
# [5] = system: activated astrocytes; assay: GFAP immunofluorescence of brain cortex sections of 5XFAD mice; type: in vivo; details: 5XFAD mouse brain, ip 0.2 mM TFP5 for 3 consecutive days
# [6] = system: 5XFAD mice; assay: Rota-rod motor behavior in 5XFAD mice; type: in vivo, mouse; details: 5XFAD mice 12 months, 3 consecutive ip injections 0.2 mM TFP5
# [7] = system: Phospho-tau; assay: Phospho-tau (AT8) Western blot in p25 transfected cortical neurons; type: cell-based, rat; details: TFP5 treatment
# [8] = target: Cdk5/P25 (Rattus norvegicus, UniProt Q03114); assay: Cdk5 kinase assay on lysates of p25 infected/transfected cortical neurons treated with TFP5; type: cell-based; parameters: expressed in transfected cells; host or cells: E18 rat cortical neurons; details: 0.05 μM TFP5
# [9] = target: T1, Cdk5 (Mus musculus, UniProt P49615); assay: Cdk5 immunoprecipitation and kinase assay on brain lysates of 5XFAD mice; type: in vivo; details: 6 and 12 month old, ip TFP5 three consecutive days
# T1 construct: from tissue; host or cells: mouse brain (5XFAD and wild-type)
# [10] = system: Activated microglia; assay: OX42 immunofluorescence of brain cortex sections of 5XFAD mice; type: in vivo; details: 5XFAD mouse brain cortex, ip 0.2 mM TFP5 for 3 consecutive days
# [11] = system: Tau; assay: AT8 phospho-Tau staining of brain sections of 5XFAD mice; type: in vivo, mouse; details: TFP5 injected
structure (smiles),measurement,setting,value
CC[C@H](C)[C@H](NC(=O)[C@H](CCC(N)=O)NC(=O)[C@H](CC(C)C)NC(=O)[C@H](CCSC)NC(=O)[C@H](CCCCN)NC(=O)[C@H](CO)NC(=O)[C@H](CO)NC(=O)[C@H](CCSC)NC(=O)[C@H](CC(C)C)NC(=O)[C@H](CC(N)=O)NC(=O)[C@@H](NC(=O)[C@@H](NC(=O)[C@H](CO)NC(=O)[C@H](CC(C)C)NC(=O)[C@H](CS)NC(=O)[C@H](CCCNC(=N)N)NC(=O)[C@H](CC(=O)O)NC(=O)[C@H](Cc1c[nH]c2ccccc12)NC(=O)[C@H](Cc1ccccc1)NC(=O)[C@H](C)NC(=O)[C@H](CCC(=O)O)NC(=O)[C@H](CCCCN)NC(=O)CNC(=O)CNC(=O)CNC(=S)Nc1ccc2c(c1)C(=O)OC21c2ccc(O)cc2Oc2cc(O)ccc21)C(C)C)[C@@H](C)CC)C(=O)N[C@@H](CC(N)=O)C(=O)N[C@@H](C)C(=O)N[C@@H](Cc1ccc(O)cc1)C(=O)N[C@@H](C)C(=O)N[C@@H](CCCNC(=N)N)C(=O)N[C@@H](C)C(=O)N[C@@H](C)C(=O)N[C@@H](CCCNC(=N)N)C(=O)N[C@@H](CCCNC(=N)N)C(=O)N[C@@H](C)C(=O)N[C@@H](C)C(=O)N[C@@H](CCCNC(=N)N)C(=O)N[C@@H](CCCNC(=N)N)C(=O)O [TFP5] ({FITC}-GGGKEAFWDRCLSVINLMSSKMLQINAYARAARRAARR-OH),"Phospho-tau and phospho-NF-M/H expression (AT8, AT180, SMI 31)",[1],reduction of expression
same,"Aβ42 (amyloid plaque formation), Aβ42 antibody",[2]; 5XFAD mouse brain cortex after TFP5 injections,significant reduction of Aβ42
same,"Aβ42 (A-beta plaque formation), 6E10 antibody",[2]; 5XFAD mouse brain cortex after three consecutive injections with TFP5,Significant reduction of Aβ42
same,Number of apoptotic cells (cleaved caspase-3),[3],reduces neuronal apoptosis
same,Number of apoptotic cells (cleaved caspase-3),[3]; listed as TFP3,significant reduction in the number of apoptotic cells
same,Spontaneous alteration performance in the Y-maze,[4],recovered and showed normal alteration comparable to WT; also recorded: recovered and showed normal alteration performance; also recorded: rescue memory deficits
same,Number of activated astrocytes (GFAP),[5],reduced the number of activated astrocytes
same,Rota-rod performance,[6],enhanced their performance equivalent to the WT
same,Phospho-tau level,[7],reduced to that of non-transfected cells
same,Hyperactivation of Cdk5 induced by p25,[8],reduced by TFP5 treatment; also recorded: significant reduction in Cdk5 activity; also recorded: reduced hyperactivation of Cdk5 induced by P25
same,Cdk5 activity in brain lysates,[9],reduces hyperactivation of Cdk5; also recorded: reduced activity of Cdk5
same,Activated microglia (OX42),[10],reduces the activation of microglia
same,Hyperphosphorylation of Tau (AT8) in the cortex,[11]; 5XFAD mice,reduces hyperphosphorylation of Tau (Ser2020) in the cortex; also recorded: reduce hyperphosphorylation of Tau (Ser2020)
same,Hyperphosphorylation of Tau (AT8) in the hippocampus,[11]; six month old 5XFAD mice,reduces hyperphosphorylation of Tau (Ser2020) in the hippocampus; also recorded: reduce hyperphosphorylation of Tau (Ser2020)
